The list shows a part of the results.
Legend:
Assay in all cases: log2 fold change, soluble protein after heating vs DMSO (PISA); higher = thermal stabilisation; K562 lysate, 10 uM; active = over 0.2 and 3.5 SD of the protein, either way, in both replicates (recomputed)
lapatinib = compound: CS(=O)(=O)CCNCc1ccc(-c2ccc3ncnc(Nc4ccc(OCc5cccc(F)c5)c(Cl)c4)c3c2)o1 [lapatinib]
How it was run: (§1)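 K562 pellets were dounce-homogenised in PBS pH 7.4 containing 1 mM MgCl2, and the crude extract, at 1 mg/mL protein, was exposed to 10 μM compound for 30 min. Aliquots were heated for 3 min across 48°C-58°C, pooled, brought to 0.5% NP-40 at 4°C and spun at 21,000xg for 90 min, with the supernatant taken as soluble protein. TMTpro 16plex LC-MS/MS with equalised channel sums quantified that protein. Values are log-two fold changes in thermal stability relative to solvent controls, taken from duplicates.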

By UniProt entry, the sequences of proteins in these tests, tags left out. Where a name states a change or a piece, a line headed by the entry shows the natural chain unless it says otherwise.
UniProt P55084: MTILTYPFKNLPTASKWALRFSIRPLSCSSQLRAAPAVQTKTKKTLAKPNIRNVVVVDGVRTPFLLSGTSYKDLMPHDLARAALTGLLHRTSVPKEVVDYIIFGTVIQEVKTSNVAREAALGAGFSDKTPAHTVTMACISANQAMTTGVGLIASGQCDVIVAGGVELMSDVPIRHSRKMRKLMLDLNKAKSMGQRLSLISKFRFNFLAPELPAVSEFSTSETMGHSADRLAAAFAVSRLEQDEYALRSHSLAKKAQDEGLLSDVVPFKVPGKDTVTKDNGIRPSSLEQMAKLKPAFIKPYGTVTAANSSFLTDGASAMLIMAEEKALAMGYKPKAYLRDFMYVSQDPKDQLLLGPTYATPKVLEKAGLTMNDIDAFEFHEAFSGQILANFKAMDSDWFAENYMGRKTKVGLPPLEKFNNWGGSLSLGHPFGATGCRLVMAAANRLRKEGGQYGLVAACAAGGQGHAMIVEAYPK
UniProt Q4G148: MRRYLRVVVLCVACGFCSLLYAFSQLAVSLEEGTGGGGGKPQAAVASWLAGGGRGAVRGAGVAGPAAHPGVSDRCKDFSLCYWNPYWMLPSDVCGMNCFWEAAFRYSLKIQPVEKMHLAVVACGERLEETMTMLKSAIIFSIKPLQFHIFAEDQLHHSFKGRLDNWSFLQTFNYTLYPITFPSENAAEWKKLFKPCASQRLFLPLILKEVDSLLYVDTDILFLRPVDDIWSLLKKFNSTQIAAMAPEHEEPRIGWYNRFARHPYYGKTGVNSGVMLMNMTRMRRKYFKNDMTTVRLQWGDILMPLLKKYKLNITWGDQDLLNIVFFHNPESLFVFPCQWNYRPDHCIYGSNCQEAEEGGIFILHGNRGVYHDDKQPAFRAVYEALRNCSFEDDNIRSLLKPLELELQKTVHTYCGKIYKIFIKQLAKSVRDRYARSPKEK
UniProt Q9BXW7: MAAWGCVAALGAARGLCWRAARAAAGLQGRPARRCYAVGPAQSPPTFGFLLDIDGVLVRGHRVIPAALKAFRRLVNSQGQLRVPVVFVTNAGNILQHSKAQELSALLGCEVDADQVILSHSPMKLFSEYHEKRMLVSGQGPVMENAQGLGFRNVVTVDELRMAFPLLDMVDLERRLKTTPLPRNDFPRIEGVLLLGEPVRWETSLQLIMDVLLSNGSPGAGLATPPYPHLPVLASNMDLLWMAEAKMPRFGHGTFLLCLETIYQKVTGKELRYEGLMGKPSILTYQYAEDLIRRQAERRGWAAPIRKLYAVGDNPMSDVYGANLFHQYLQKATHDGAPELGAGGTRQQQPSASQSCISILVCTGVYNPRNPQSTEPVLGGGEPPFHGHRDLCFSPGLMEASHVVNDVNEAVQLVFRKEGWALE
UniProt P21266: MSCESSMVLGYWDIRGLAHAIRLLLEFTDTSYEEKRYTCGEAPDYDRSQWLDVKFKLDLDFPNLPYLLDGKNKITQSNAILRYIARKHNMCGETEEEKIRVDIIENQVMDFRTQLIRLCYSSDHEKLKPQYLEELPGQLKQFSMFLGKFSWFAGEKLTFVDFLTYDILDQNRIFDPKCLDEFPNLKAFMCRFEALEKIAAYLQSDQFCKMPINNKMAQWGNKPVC
UniProt P69892: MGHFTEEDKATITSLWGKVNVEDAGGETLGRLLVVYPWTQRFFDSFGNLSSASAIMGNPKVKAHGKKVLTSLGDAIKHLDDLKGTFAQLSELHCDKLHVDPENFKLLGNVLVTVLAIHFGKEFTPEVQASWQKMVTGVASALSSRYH
UniProt P56524: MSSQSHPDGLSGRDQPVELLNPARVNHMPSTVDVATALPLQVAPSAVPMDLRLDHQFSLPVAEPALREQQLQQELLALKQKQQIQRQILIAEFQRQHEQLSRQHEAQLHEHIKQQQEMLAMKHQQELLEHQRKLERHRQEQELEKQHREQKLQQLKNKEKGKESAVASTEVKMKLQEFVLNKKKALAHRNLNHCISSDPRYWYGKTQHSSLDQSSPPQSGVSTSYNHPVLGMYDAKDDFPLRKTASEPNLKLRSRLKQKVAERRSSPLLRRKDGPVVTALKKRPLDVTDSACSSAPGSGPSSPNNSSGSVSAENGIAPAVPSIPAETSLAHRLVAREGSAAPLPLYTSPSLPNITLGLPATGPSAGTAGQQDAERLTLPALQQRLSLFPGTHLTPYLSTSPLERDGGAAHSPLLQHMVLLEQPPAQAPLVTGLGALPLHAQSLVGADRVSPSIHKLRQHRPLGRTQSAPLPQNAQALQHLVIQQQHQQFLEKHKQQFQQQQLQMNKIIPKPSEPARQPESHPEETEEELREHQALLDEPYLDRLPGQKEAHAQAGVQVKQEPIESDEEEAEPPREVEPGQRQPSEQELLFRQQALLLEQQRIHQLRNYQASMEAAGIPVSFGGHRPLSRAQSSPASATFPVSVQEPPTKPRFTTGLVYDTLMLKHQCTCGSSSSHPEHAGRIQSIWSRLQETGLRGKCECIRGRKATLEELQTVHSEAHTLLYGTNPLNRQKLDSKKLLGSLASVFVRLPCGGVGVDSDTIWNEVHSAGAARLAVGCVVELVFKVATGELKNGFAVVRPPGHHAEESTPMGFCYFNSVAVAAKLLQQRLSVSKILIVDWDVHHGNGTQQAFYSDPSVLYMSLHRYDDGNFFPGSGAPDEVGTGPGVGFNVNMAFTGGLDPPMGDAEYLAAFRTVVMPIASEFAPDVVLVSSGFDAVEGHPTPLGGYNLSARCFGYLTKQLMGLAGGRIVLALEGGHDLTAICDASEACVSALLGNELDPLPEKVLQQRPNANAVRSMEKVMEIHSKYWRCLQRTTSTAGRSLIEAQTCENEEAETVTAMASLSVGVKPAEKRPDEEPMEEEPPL
UniProt P09105: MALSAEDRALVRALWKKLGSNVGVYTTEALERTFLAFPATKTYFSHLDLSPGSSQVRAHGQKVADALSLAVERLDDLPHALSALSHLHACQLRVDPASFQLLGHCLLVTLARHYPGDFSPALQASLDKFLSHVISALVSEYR
UniProt O14929: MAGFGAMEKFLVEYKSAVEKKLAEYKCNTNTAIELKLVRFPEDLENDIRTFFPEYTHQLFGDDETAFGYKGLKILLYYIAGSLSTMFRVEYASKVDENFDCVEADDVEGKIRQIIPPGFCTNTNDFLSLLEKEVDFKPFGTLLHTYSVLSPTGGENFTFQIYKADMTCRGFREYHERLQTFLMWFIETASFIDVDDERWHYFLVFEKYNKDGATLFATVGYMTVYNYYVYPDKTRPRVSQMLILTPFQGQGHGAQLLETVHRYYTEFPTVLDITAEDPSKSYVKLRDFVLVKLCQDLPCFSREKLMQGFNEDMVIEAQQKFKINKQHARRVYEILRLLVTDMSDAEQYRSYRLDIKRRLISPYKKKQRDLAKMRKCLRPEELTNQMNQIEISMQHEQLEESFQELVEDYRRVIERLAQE
UniProt Q9UBQ7: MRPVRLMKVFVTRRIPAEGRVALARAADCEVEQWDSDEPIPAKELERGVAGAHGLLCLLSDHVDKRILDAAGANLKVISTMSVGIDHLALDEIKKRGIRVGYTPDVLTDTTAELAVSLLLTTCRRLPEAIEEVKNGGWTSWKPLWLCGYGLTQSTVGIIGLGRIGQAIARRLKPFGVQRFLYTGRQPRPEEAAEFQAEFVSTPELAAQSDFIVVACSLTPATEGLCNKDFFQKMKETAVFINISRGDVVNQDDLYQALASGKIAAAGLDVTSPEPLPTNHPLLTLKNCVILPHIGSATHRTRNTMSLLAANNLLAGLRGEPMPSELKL
UniProt Q9NYZ3: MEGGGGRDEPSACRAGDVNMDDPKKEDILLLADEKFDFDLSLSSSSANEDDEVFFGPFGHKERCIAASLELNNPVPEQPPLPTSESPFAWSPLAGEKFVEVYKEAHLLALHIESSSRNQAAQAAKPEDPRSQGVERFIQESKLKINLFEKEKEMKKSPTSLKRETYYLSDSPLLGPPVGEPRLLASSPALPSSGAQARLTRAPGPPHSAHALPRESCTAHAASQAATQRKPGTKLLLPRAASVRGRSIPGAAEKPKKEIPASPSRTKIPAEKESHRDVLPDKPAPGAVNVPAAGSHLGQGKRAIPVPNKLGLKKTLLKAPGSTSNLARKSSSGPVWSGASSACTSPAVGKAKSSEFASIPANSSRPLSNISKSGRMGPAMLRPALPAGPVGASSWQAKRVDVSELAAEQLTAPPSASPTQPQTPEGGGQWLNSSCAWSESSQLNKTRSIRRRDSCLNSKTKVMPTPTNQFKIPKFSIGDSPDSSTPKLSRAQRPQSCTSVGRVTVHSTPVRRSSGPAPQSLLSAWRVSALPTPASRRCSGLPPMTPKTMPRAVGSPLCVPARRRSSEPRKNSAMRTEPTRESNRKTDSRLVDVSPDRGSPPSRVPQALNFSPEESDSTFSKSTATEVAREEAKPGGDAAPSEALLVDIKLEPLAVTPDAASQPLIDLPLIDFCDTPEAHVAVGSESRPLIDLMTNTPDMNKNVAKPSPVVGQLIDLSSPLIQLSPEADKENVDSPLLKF
UniProt Q7Z4H3: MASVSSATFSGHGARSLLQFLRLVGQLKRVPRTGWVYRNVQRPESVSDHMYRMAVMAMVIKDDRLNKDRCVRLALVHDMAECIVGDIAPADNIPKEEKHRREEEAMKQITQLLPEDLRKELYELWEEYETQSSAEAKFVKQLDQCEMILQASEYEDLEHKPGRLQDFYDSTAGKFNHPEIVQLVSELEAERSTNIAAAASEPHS
UniProt Q969Y2: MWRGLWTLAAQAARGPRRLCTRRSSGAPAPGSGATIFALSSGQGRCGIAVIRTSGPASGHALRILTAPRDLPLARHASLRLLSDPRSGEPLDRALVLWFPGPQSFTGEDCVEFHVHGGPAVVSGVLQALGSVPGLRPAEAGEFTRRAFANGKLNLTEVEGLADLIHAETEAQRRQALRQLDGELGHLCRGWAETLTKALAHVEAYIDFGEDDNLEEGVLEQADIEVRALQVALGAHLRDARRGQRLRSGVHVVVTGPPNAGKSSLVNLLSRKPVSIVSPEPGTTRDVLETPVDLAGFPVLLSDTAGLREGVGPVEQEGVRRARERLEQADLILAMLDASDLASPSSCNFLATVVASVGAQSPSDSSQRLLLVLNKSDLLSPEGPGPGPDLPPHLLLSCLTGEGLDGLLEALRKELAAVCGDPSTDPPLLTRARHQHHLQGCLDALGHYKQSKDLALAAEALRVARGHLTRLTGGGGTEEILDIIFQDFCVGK
UniProt P69891: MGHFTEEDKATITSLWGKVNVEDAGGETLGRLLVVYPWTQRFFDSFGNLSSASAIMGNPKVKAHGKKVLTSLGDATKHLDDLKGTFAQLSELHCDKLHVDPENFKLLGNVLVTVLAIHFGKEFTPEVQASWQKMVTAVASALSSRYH
UniProt P49840: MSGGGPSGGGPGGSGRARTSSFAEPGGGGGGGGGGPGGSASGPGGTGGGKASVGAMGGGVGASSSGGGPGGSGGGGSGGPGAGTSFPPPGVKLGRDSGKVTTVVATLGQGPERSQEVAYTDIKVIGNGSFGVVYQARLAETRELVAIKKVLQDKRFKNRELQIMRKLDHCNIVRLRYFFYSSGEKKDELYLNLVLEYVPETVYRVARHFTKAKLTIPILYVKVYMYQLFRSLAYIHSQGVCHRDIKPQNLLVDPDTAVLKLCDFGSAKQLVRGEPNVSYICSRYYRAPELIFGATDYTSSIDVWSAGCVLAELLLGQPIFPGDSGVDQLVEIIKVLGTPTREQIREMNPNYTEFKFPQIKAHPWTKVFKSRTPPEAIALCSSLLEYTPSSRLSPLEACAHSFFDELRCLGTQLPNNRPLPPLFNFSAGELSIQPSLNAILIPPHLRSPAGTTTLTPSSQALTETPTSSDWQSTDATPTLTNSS

pictilisib = compound: CS(=O)(=O)N1CCN(Cc2cc3nc(-c4cccc5[nH]ncc45)nc(N4CCOCC4)c3s2)CC1 [pictilisib]
How it was run: as §1

crizotinib = compound: C[C@@H](Oc1cc(-c2cnn(C3CCNCC3)c2)cnc1N)c1c(Cl)ccc(F)c1Cl [crizotinib]
How it was run: as §1

[1] = compound: C[C@H](C1=CC=C(C=C1)C(=O)NC2=C3C=CNC3=NC=C2)N
How it was run: as §1

duvelisib = compound: C[C@H](Nc1ncnc2nc[nH]c12)c1cc2cccc(Cl)c2c(=O)n1-c1ccccc1 [duvelisib]
How it was run: as §1

gandotinib = compound: Cc1cc(Nc2cc(CN3CCOCC3)c3nc(C)c(Cc4ccc(Cl)cc4F)n3n2)n[nH]1 [gandotinib]
How it was run: as §1

tozasertib = compound: Cc1cc(Nc2cc(N3CCN(C)CC3)nc(Sc3ccc(NC(=O)C4CC4)cc3)n2)n[nH]1 [tozasertib]
How it was run: as §1

doramapimod = compound: Cc1ccc(-n2nc(C(C)(C)C)cc2NC(=O)Nc2ccc(OCCN3CCOCC3)c3ccccc23)cc1 [doramapimod]
How it was run: as §1

bafetinib = compound: Cc1ccc(NC(=O)c2ccc(CN3CC[C@H](N(C)C)C3)c(C(F)(F)F)c2)cc1Nc1nccc(-c2cncnc2)n1 [bafetinib]
How it was run: as §1

[2] = compound: Cc1cccc(CC(=O)N2CCc3c2ccc(-c2cn(C)c4ncnc(N)c24)c3F)n1
How it was run: as §1

nilotinib = compound: Cc1cn(-c2cc(NC(=O)c3ccc(C)c(Nc4nccc(-c5cccnc5)n4)c3)cc(C(F)(F)F)c2)cn1 [nilotinib]
How it was run: as §1

[3] = compound: Cc1nc(Nc2n[nH]c3c2CN(C(=O)N[C@H](CN(C)C)c2ccccc2)C3(C)C)c2sccc2n1
How it was run: as §1

dasatinib = compound: Cc1nc(Nc2ncc(C(=O)Nc3c(C)cccc3Cl)s2)cc(N2CCN(CCO)CC2)n1 [dasatinib]
How it was run: as §1

[4] = compound: Cc1ncc(-c2ccnc(Nc3ccc(S(C)(=O)=O)cc3)n2)n1C(C)C
How it was run: as §1

[5] = compound: Cn1cc(-c2ccc3c(c2)CCN3C(=O)Cc2cccc(C(F)(F)F)c2)c2c(N)ncnc21
How it was run: as §1

quisinostat = compound: Cn1cc(CNCC2CCN(c3ncc(C(=O)NO)cn3)CC2)c2ccccc21 [quisinostat]
How it was run: as §1

tipifarnib = compound: Cn1cncc1[C@@](N)(c1ccc(Cl)cc1)c1ccc2c(c1)c(-c1cccc(Cl)c1)cc(=O)n2C [tipifarnib]
How it was run: as §1

[6] = compound: NC(=O)Nc1cc(-c2cccc(F)c2)sc1C(=O)N[C@H]1CCCNC1
How it was run: as §1

[7] = compound: NC(=O)c1cnc(N[C@@H]2CCCC[C@@H]2N)nc1Nc1cccc(-n2nccn2)c1
How it was run: as §1

[8] = compound: NC1(c2ccc(-c3nc4ccn5c(=O)[nH]nc5c4cc3-c3ccccc3)cc2)CCC1
How it was run: as §1

Measured: log2 fold change

HADHB (UniProt P55084)
inactive: lapatinib 0.1 | pictilisib 0.067 | crizotinib 0.073 | [1] -0.041 | duvelisib 0.037 | gandotinib 0.138 | tozasertib 0.016 | doramapimod 0.218 | bafetinib 0.014 | [2] -0.093 | nilotinib 0.052 | [3] -0.028 | dasatinib -0.026 | [4] 0.022 | [5] 0.066 | quisinostat -0.064 | tipifarnib 0.028 | [6] -0.122 | [7] -0.076 | [8] 0.073

GXYLT1 (UniProt Q4G148)
inactive: lapatinib 0.087 | pictilisib -0.059 | crizotinib -0.018 | [1] -0.093 | duvelisib 0.166 | gandotinib 0.037 | tozasertib 0.004 | doramapimod 0.025 | bafetinib 0.058 | [2] 0.046 | nilotinib 0.043 | [3] -0.147 | dasatinib 0.025 | [4] -0.026 | [5] -0.17 | quisinostat -0.012 | tipifarnib -0.109 | [6] -0.019 | [7] -0.007 | [8] -0.021

HDHD5 (UniProt Q9BXW7)
inactive: lapatinib 0.011 | pictilisib 0.012 | crizotinib -0.017 | [1] -0.147 | duvelisib 0.058 | gandotinib -0.005 | tozasertib 0.059 | doramapimod 0.131 | bafetinib 0.033 | [2] 0.116 | nilotinib 0.157 | [3] -0.081 | dasatinib 0.023 | [4] -0.052 | [5] -0.042 | quisinostat -0.026 | tipifarnib -0.008 | [6] 0.028 | [7] -0.014 | [8] -0.036

H2AFX (UniProt P16104)
inactive: lapatinib 0.039 | pictilisib 0.027 | crizotinib -0.054 | [1] -0.035 | duvelisib -0.006 | gandotinib 0.011 | tozasertib 0.013 | doramapimod 0.018 | bafetinib 0.048 | [2] 0.098 | nilotinib -0.013 | [3] 0 | dasatinib 0.02 | [4] -0.029 | [5] -0.008 | quisinostat 0.007 | tipifarnib 0.007 | [6] -0.015 | [7] 0.04 | [8] 0.008

GSTM3 (UniProt P21266)
inactive: lapatinib -0.045 | pictilisib -0.004 | crizotinib 0.078 | [1] 0.007 | duvelisib 0.027 | gandotinib -0.143 | tozasertib -0.035 | doramapimod -0.034 | bafetinib -0.075 | [2] -0.036 | nilotinib -0.041 | [3] -0.09 | dasatinib -0.12 | [4] 0.05 | [5] 0.155 | quisinostat -0.111 | tipifarnib 0.077 | [6] 0.075 | [7] 0.081 | [8] 0.014

HBG2 (UniProt P69892)
inactive: lapatinib 0.051 | pictilisib -0.048 | crizotinib 0.011 | [1] 0.067 | duvelisib 0.004 | gandotinib -0.048 | tozasertib -0.013 | doramapimod -0.014 | bafetinib -0.037 | [2] -0.06 | nilotinib 0.087 | [3] 0.013 | dasatinib 0.031 | [4] 0.044 | [5] -0.007 | quisinostat 0.042 | tipifarnib 0.062 | [6] -0.033 | [7] -0.042 | [8] -0.009

HDAC4 (UniProt P56524)
inactive: lapatinib 0.014 | pictilisib -0.078 | crizotinib -0.007 | [1] 0.018 | duvelisib 0.025 | gandotinib 0.027 | tozasertib 0.017 | doramapimod 0.018 | bafetinib 0.024 | [2] 0.039 | nilotinib 0.029 | [3] 0.021 | dasatinib -0.014 | [4] 0.02 | [5] 0.047 | quisinostat 0.055 | tipifarnib -0.075 | [6] -0.015 | [7] -0.005 | [8] 0

HBQ1 (UniProt P09105)
inactive: lapatinib 0.09 | pictilisib -0.03 | crizotinib -0.033 | [1] 0.013 | duvelisib 0.008 | gandotinib -0.082 | tozasertib 0.058 | doramapimod -0.031 | bafetinib -0.013 | [2] 0.005 | nilotinib 0.046 | [3] 0.039 | dasatinib 0.044 | [4] 0.1 | [5] 0.011 | quisinostat 0.026 | tipifarnib -0.024 | [6] -0.029 | [7] -0.028 | [8] 0.025

2 records picked at random from those above:
GSTM3 (UniProt P21266)
inactive: lapatinib -0.045 | pictilisib -0.004 | crizotinib 0.078 | [1] 0.007 | duvelisib 0.027 | gandotinib -0.143 | tozasertib -0.035 | doramapimod -0.034 | bafetinib -0.075 | [2] -0.036 | nilotinib -0.041 | [3] -0.09 | dasatinib -0.12 | [4] 0.05 | [5] 0.155 | quisinostat -0.111 | tipifarnib 0.077 | [6] 0.075 | [7] 0.081 | [8] 0.014

HDAC4 (UniProt P56524)
inactive: lapatinib 0.014 | pictilisib -0.078 | crizotinib -0.007 | [1] 0.018 | duvelisib 0.025 | gandotinib 0.027 | tozasertib 0.017 | doramapimod 0.018 | bafetinib 0.024 | [2] 0.039 | nilotinib 0.029 | [3] 0.021 | dasatinib -0.014 | [4] 0.02 | [5] 0.047 | quisinostat 0.055 | tipifarnib -0.075 | [6] -0.015 | [7] -0.005 | [8] 0

Continuation.

HAT1 (UniProt O14929)
inactive: lapatinib -0.001 | pictilisib 0.008 | crizotinib 0.003 | [1] -0.017 | duvelisib 0.012 | gandotinib -0.004 | tozasertib -0.052 | doramapimod 0.017 | bafetinib -0.016 | [2] 0.064 | nilotinib -0.009 | [3] 0.033 | dasatinib 0.001 | [4] 0.027 | [5] 0.01 | quisinostat -0.041 | tipifarnib -0.007 | [6] 0.008 | [7] 0.004 | [8] -0.015

GRHPR (UniProt Q9UBQ7)
inactive: lapatinib 0.001 | pictilisib -0.023 | crizotinib -0.017 | [1] 0.189 | duvelisib 0.004 | gandotinib -0.08 | tozasertib 0.001 | doramapimod -0.033 | bafetinib 0.042 | [2] -0.122 | nilotinib 0 | [3] -0.008 | dasatinib -0.044 | [4] 0.005 | [5] -0.019 | quisinostat 0.013 | tipifarnib 0.043 | [6] 0.014 | [7] 0.012 | [8] 0.007

HEATR1 (UniProt Q9H583)
inactive: lapatinib -0.012 | pictilisib 0.012 | crizotinib -0.064 | [1] -0.027 | duvelisib 0.059 | gandotinib -0.094 | tozasertib -0.001 | doramapimod 0.015 | bafetinib -0.028 | [2] 0.125 | nilotinib 0.021 | [3] -0.006 | dasatinib -0.05 | [4] -0.041 | [5] 0.023 | quisinostat -0.038 | tipifarnib -0.015 | [6] 0.067 | [7] 0.005 | [8] 0.036

GTSE1 (UniProt Q9NYZ3)
inactive: lapatinib -0.072 | pictilisib -0.053 | crizotinib 0.061 | [1] -0.115 | duvelisib 0.08 | gandotinib 0.082 | tozasertib 0.036 | doramapimod -0.035 | bafetinib -0.093 | [2] -0.004 | nilotinib 0.027 | [3] 0.014 | dasatinib 0.01 | [4] 0.042 | [5] -0.083 | quisinostat -0.05 | tipifarnib -0.051 | [6] 0.051 | [7] -0.152 | [8] 0.103

HDDC2 (UniProt Q7Z4H3)
inactive: lapatinib -0.014 | pictilisib -0.042 | crizotinib 0.023 | [1] -0.002 | duvelisib -0.022 | gandotinib -0.028 | tozasertib -0.01 | doramapimod 0.004 | bafetinib 0.053 | [2] -0.04 | nilotinib 0.055 | [3] -0.002 | dasatinib 0.039 | [4] 0.034 | [5] -0.012 | quisinostat 0.026 | tipifarnib 0.017 | [6] 0 | [7] -0.037 | [8] 0.008

GTPBP3 isoform 2 (UniProt Q969Y2)
inactive: lapatinib -0.028 | pictilisib 0.047 | crizotinib -0.14 | [1] 0.052 | duvelisib -0.063 | gandotinib 0.143 | tozasertib 0.034 | doramapimod 0.032 | bafetinib -0.013 | [2] 0.182 | nilotinib 0.057 | [3] -0.083 | dasatinib 0.03 | [4] 0.065 | [5] -0.002 | quisinostat -0.105 | tipifarnib 0.006 | [6] 0.033 | [7] -0.02 | [8] -0.089

HBG1 (UniProt P69891)
inactive: lapatinib 0.042 | pictilisib -0.033 | crizotinib 0.015 | [1] 0.065 | duvelisib 0.001 | gandotinib -0.023 | tozasertib -0.021 | doramapimod -0.006 | bafetinib -0.006 | [2] -0.026 | nilotinib 0.054 | [3] -0.018 | dasatinib 0.024 | [4] 0.019 | [5] -0.053 | quisinostat 0.053 | tipifarnib 0.021 | [6] -0.023 | [7] -0.021 | [8] -0.011

GSK3A (UniProt P49840)
active: gandotinib 0.641 | [4] 0.562
inactive: lapatinib -0.026 | pictilisib 0.207 | crizotinib 0.069 | [1] -0.002 | duvelisib 0.016 | tozasertib -0.017 | doramapimod 0.002 | bafetinib 0.008 | [2] -0.02 | nilotinib 0.026 | [3] 0.425 | dasatinib 0.021 | [5] 0.048 | quisinostat -0.009 | tipifarnib -0.008 | [6] -0.024 | [7] 0.099 | [8] -0.006
